According to patent publication US6624157B2, “Thiadioxobenzodiazepine inhibitors of farnesyl protein transferase” (Bristol-Myers Squibb Company, priority 1996, dated 2003):
Where a name gives a salt, the structure may show the parent alone. Some entries share one result that the patent states for a list of compounds.

Each compound was assayed against farnesyl transferase (Homo sapiens, UniProt P49354+P49356) (assay: Farnesyl transferase assay). Details: assay as described in V. Manne et al., Drug Development Research, 34, 121-137 (1995); bounds printed in nM (lower) and μM (upper).
Type: biochemical

Compound	IC50 values (inhibition of farnesyl transferase)
O=S1(=O)c2ccccc2N(Cc2cnc[nH]2)CCN1Cc1cccc2ccccc12 [Example 1, 2,3,4,5-Tetrahydro-5-(1H-imidazol-4-ylmethyl)-2-(1-naphthalenylmethyl)-1,2,5-benzothiadiazepine, 1,1-dioxide, monohydrochloride]	0.1 nM and 100000 nM
O=S1(=O)c2ccccc2N(Cc2cnc[nH]2)CCN1CCc1ccccc1 [Example 2, 2,3,4,5-Tetrahydro-5-(1H-imidazol-4-ylmethyl)-2-(2-phenylethyl)-1,2,5-benzothiadiazepine, 1,1-dioxide, monohydrochloride]	0.1 nM and 100000 nM
O=S1(=O)c2cc(Br)ccc2N(Cc2cnc[nH]2)CCN1CCc1ccccc1 [Example 3, 8-Bromo-2,3,4,5-tetrahydro-5-(1H-imidazol-4-ylmethyl)-2-(2-phenylethyl)-1,2,5-benzothiadiazepine, 1,1-dioxide, monohydrochloride]	0.1 nM and 100000 nM
O=S1(=O)c2cc(-c3ccccc3)ccc2N(Cc2cnc[nH]2)CCN1CCc1ccccc1 [Example 4, 2,3,4,5-Tetrahydro-5-(1H-imidazol-4-ylmethyl)-8-phenyl-2-(2-phenylethyl)-1,2,5-benzothiadiazepine, 1,1-dioxide, monohydrochoride]	0.1 nM and 100000 nM
NC(=O)Cn1cncc1CN1CCN(CCc2ccccc2)S(=O)(=O)c2cc(Br)ccc21 [Example 5, 5-[[8-Bromo-2,3,4,5-tetrahydro-1,1-dioxo-2-(2-phenylethyl)-1,2,5-benzothiadiazepin-5-yl]methyl]-1H-imidazole-1-acetamide, monohydrochloride]	0.1 nM and 100000 nM
O=C(Nc1ccc2c(c1)N(Cc1cnc[nH]1)CC(Cc1ccccc1)NS2(=O)=O)C1CCCCC1 (stereo not shown) [Example 6, N-[2,3,4,5-Tetrahydro-5-(1H-imidazol-4-ylmethyl)-3-(phenylmethyl)-1,2,5-benzothiadiazepin-7-yl]cyclohexanecarboxamide, 1,1-dioxide, monohydrochloride]	0.1 nM and 100000 nM
O=C(Nc1ccc2c(c1)N(Cc1cnc[nH]1)CC(Cc1ccccc1)NS2(=O)=O)c1ccccc1 (stereo not shown) [Example 7, N-[2,3,4,5-Tetrahydro-5-(1H-imidazol-4-ylmethyl)-3-(phenylmethyl)-1,2,5-benzothiadiazepin-7-yl]phenylcarboxamide, 1,1-dioxide, monohydrochloride]	0.1 nM and 100000 nM
O=C(Nc1ccc2c(c1)N(Cc1cnc[nH]1)CCN(CCc1ccccc1)S2(=O)=O)C1CCCCC1 [Example 8, N-[2,3,4,5-Tetrahydro-5-(1H-imidazol-4-ylmethyl)-2-(phenylethyl)-1,2,5-benzothiadiazepin-7-yl]cyclohexanecarboxamide, 1,1-dioxide, monohydrochloride]	0.1 nM and 100000 nM
O=S1(=O)NC(Cc2ccccc2)CN(Cc2cnc[nH]2)c2ccc(Br)cc21 (stereo not shown) [Example 9, N-[2,3,4,5-Tetrahydro-8-bromo-5-(1H-imidazol-4-ylmethyl)-3-(phenylmethyl)-1,2,5-benzothiadiazepine, 1,1-dioxide, monohydrochloride]	0.1 nM and 100000 nM
CN1C(Cc2ccccc2)CN(Cc2cnc[nH]2)c2ccc(Br)cc2S1(=O)=O (stereo not shown) [Example 10, 2,3,4,5-Tetrahydro-8-bromo-2-methyl-5-(1H-imidazol-4-ylmethyl)-3-(phenylmethyl)-1,2,5-benzothiadiazepine, 1,1-dioxide, monohydrochloride]	0.1 nM and 100000 nM
CCOC(=O)CN1C(Cc2ccccc2)CN(Cc2cnc[nH]2)c2ccc(Br)cc2S1(=O)=O (stereo not shown) [Example 11, 2,3,4,5-Tetrahydro-8-bromo-5-(1H-imidazol-4-ylmethyl)-3-(phenylmethyl)-1,2,5-benzothiadiazepine-2-acetic acid, ethyl ester, 1,1-dioxide, monohydrochloride]	0.1 nM and 100000 nM
O=S1(=O)c2ccccc2N(Cc2cnc[nH]2)CCN1Cc1ccccc1 [Example 12, 2,3,4,5-Tetrahydro-5-(1H-imidazol-4-ylmethyl)-2-phenylmethyl-1,2,5-benzothiadiazepine, 1,1-dioxide, monohydrochloride]	0.1 nM and 100000 nM
O=S1(=O)c2cc(Br)ccc2N(Cc2cnc[nH]2)CC(Cc2ccccc2)N1CCc1ccccc1 (stereo not shown) [Example 14, 2,3,4,5-Tetrahydro-8-bromo-5-(1H-imidazol-4-ylmethyl)-2-(2-phenylethyl)-3-(phenylmethyl)-1,2,5-benzothiadiazepine, 1,1-dioxide, monohydrochloride]	0.1 nM and 100000 nM
CS(=O)(=O)N1C(Cc2ccccc2)CN(Cc2cnc[nH]2)c2ccccc2S1(=O)=O (stereo not shown) [Example 15, 2,3,4,5-Tetrahydro-5-(1H-imidazol-4-ylmethyl)-2-(methylsulfonyl)-3-(phenylmethyl)-1,2,5-benzothiadiazepine, 1,1-dioxide, monohydrochloride]	0.1 nM and 100000 nM
N#Cc1ccc(N2CCN(Cc3cnc[nH]3)c3ccccc3S2(=O)=O)cc1 [Example 16, 4-[2,3,4,5-Tetrahydro-5-(1H-imidazol-4-ylmethyl)-1,2,5-benzothiadiazepin-2-yl]benzonitrile, 1,1-dioxide, monohydrochloride]	0.1 nM and 100000 nM
N#Cc1cccc(N2CCN(Cc3cnc[nH]3)c3ccccc3S2(=O)=O)c1 [Example 17, 3-[2,3,4,5-Tetrahydro-5-(1H-imidazol-4-ylmethyl)-1,2,5-benzothiadiazepin-2-yl]benzonitrile, 1,1-dioxide, monohydrochloride]	0.1 nM and 100000 nM
N#Cc1ccccc1N1CCN(Cc2cnc[nH]2)c2ccccc2S1(=O)=O [Example 18, 2-[2,3,4,5-Tetrahydro-5-(1H-Imidazol-4-ylmethyl)-1,2,5-benzothiadiazepin-2-yl]benzonitrile, 1,1-dioxide, monohydrochloride]	0.1 nM and 100000 nM
CCOC(=O)c1ccccc1N1CCN(Cc2cnc[nH]2)c2ccccc2S1(=O)=O [Example 19, 2-[2,3,4,5-Tetrahydro-5-(1H-Imidazol-4-ylmethyl)-1,2,5-benzothiadiazepin-2-yl]benzoic acid, ethyl ester, 1,1-dioxide, monohydrochloride]	0.1 nM and 100000 nM
N#Cc1cccc(N2CCN(Cc3cnc[nH]3)c3ccc(Br)cc3S2(=O)=O)c1 [Example 20, 3-[8-Bromo-2,3,4,5-tetrahydro-5-(1H-imidazol-4-ylmethyl)-1,2,5-benzothiadiazepin-2-yl]benzonitrile, 1,1-dioxide, monohydrochloride]	0.1 nM and 100000 nM
O=S1(=O)c2ccccc2N(Cc2cnc[nH]2)CCN1c1nccs1 [Example 21, 2,3,4,5-Tetrahydro-5-(1H-imidazol-4-ylmethyl)-2-(2-thiazolyl)-1,2,5-benzothiadiazepine, 1,1-dioxide, monohydrochloride]	0.1 nM and 100000 nM
COc1cccc(N2CCN(Cc3cnc[nH]3)c3ccccc3S2(=O)=O)c1 [Example 22, 2,3,4,5-Tetrahydro-5-(1H-imidazol-4-ylmethyl)-2-(3-methoxyphenyl)-1,2,5-benzothiadiazepine, 1,1-dioxide, monohydrochloride]	0.1 nM and 100000 nM
COc1ccc(N2CCN(Cc3cnc[nH]3)c3ccccc3S2(=O)=O)cc1S(=O)(=O)N(C)Cc1ccccc1 [Example 23, 5-[2,3,4,5-Tetrahydro-5-(1H-imidazol-4-ylmethyl)-1,2,5-benzothiadiazepin-2-yl]-2-methoxy-N-methyl-N-(phenylmethyl)benzenesulfona mide, 1,1-dioxide, monohydrochloride]	0.1 nM and 100000 nM
COC(=O)c1cccc(N2CCN(Cc3cnc[nH]3)c3ccccc3S2(=O)=O)c1 [Example 24, 3-[2,3,4,5-Tetrahydro-5-(1H-imidazol-4-ylmethyl)-1,2,5-benzothiadiazepin-2-yl]benzoic acid, methyl ester, 1,1-dioxide, monohydrochloride]	0.1 nM and 100000 nM
CN(Cc1ccccc1)S(=O)(=O)c1ccccc1N1CCN(Cc2cnc[nH]2)c2ccccc2S1(=O)=O [Example 25, 2-[2,3,4,5-Tetrahydro-5-(1H-imidazol-4-ylmethyl)-1,2,5-benzothiadiazepin-2-yl)-N-methyl-N-(phenylmethyl)benzenesulfona mide, 1,1-dioxide, monohydrochloride]	0.1 nM and 100000 nM
CCOC(=O)c1ccccc1N1CCN(Cc2cnc[nH]2)c2ccc(Br)cc2S1(=O)=O [Example 26, 2-[2,3,4,5-Tetrahydro-5-(1H-imidazol-4-ylmethyl)-1,2,5-benzothiadiazepin-2-yl]benzoic acid, ethyl ester, 1,1-dioxide, monohydrochloride]	0.1 nM and 100000 nM
CN(Cc1ccccc1)C(=O)c1ccccc1N1CCN(Cc2cnc[nH]2)c2ccccc2S1(=O)=O [Example 27, 2-[2,3,4,5-Tetrahydro-5-(1H-imidazol-4-ylmethyl)-1,2,5-benzothiadiazepin-2-yl]-N-methyl-N-(phenylmethyl)benzamide, 1,1-dioxide, monohydrochloride]	0.1 nM and 100000 nM
COc1ccccc1N1CCN(Cc2cnc[nH]2)c2ccccc2S1(=O)=O [Example 28, 2,3,4,5-Tetrahydro-5-(1H-imidazol-4-ylmethyl)-2-(2-methoxyphenyl)-1,2,5-benzothiadiazepine, 1,1-dioxide, monohydrochloride]	0.1 nM and 100000 nM

Same assay, conditions: assay as described in V. Manne et al., Drug Development Research, 34, 121-137 (1995); bounds printed in nM (lower) and μM (upper); read-out: IC50 values (inhibition of farnesyl transferase)

Compound	IC50
2,3,4,5-Tetrahydro-5-(1H-imidazol-4-ylmethyl)-a-phenyl-1,2,5-benzothiadiazepine-2-acetic acid, methyl ester, 1,1-dioxide, monohydrochloride [Example 13]	0.1 to 100000 nM
